Test results from article PMC8651678.
Results are given in words; binding and its absence hold for the method and conditions named. Some results given as binding are weak or reduced against the parent protein; the word gives no strength.

The chains behind the UniProt entries cited, without tags or fusion partners. Where a name states a change or a piece, a line headed by the entry shows the natural chain unless it says otherwise.
UniProt Q14232: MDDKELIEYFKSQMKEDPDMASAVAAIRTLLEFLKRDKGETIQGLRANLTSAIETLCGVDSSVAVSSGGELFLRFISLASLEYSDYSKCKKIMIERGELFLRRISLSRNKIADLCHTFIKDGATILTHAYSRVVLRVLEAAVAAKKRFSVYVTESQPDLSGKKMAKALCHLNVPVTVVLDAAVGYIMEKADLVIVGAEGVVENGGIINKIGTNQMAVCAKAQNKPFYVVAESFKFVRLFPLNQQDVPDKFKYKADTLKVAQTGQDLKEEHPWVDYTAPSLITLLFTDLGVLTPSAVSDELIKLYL
UniProt P49770: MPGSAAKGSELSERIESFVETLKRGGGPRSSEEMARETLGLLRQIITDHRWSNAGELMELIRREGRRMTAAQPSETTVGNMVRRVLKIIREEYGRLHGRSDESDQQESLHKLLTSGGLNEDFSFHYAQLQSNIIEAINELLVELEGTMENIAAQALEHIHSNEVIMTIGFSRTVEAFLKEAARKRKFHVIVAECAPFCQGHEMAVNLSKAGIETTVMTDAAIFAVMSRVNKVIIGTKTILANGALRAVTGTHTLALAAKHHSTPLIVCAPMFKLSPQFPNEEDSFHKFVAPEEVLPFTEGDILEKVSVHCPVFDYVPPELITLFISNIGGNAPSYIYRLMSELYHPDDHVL
UniProt P12792: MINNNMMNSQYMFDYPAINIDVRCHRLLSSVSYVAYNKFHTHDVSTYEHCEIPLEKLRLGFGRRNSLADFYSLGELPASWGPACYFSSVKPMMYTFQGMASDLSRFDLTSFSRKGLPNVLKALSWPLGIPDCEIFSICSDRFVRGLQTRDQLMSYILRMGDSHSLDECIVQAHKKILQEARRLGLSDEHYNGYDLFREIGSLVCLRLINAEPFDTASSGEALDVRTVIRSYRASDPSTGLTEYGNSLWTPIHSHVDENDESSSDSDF

Legend:
[1] = biological target: human eIF2B(αβδγε)2 decamer, eIF2Bα Avi-tagged and biotinylated (human) (UniProt Q14232); assay: SPR; both purified
[2] = biological target: human eIF2Bβδγε tetramer, eIF2Bβ Avi-tagged and biotinylated (human) (UniProt P49770); assay: SPR; both purified
[3] = biological target: human eIF2B(αβδγε)2 decamer, eIF2Bα protein C tagged (human) (UniProt Q14232); assay: pull-down; both purified
[4] = biological target: human eIF2Bβδγε tetramer, eIF2Bβ protein C tagged (human) (UniProt P49770); assay: pull-down; both purified

## Sandfly Fever Sicilian virus (SFSV) NSs protein with a C-terminal 6xHIS tag (from UniProt P12792 1-267)
[1]
  binding: binds
[2]
  binding: no binding
[3]
  binding: binds
[4]
  binding: no binding
